Reference: patent publication US20260049134A1
Results are given in words; binding and its absence hold for the method and conditions named. Some results given as binding are weak or reduced against the parent protein; the word gives no strength. For some of these results: Where a sequence is shown, tags or fusion partners need not be part of it.

T1: GARS-His (Sino Biological) (human) (UniProt P41250)
T1 sequence: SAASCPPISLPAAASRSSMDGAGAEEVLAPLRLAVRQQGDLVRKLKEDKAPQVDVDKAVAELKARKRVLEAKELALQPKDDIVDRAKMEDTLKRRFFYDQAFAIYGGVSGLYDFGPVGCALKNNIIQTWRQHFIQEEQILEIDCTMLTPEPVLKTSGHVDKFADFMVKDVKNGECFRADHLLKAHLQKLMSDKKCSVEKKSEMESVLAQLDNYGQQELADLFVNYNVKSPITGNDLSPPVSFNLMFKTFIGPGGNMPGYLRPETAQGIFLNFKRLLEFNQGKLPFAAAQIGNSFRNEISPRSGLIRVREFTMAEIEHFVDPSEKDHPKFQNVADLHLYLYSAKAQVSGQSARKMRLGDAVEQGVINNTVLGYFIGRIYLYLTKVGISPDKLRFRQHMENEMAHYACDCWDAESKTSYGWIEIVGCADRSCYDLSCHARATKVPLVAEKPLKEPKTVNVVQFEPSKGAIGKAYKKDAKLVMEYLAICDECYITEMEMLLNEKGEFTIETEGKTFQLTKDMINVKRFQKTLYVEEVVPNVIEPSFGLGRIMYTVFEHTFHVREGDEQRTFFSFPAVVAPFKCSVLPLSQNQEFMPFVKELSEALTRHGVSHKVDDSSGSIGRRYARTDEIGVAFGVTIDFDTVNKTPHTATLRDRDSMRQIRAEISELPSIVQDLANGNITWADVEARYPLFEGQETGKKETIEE

T2: GARS, endogenous in H929 multiple myeloma cells (human) (UniProt P41250)
T2 sequence: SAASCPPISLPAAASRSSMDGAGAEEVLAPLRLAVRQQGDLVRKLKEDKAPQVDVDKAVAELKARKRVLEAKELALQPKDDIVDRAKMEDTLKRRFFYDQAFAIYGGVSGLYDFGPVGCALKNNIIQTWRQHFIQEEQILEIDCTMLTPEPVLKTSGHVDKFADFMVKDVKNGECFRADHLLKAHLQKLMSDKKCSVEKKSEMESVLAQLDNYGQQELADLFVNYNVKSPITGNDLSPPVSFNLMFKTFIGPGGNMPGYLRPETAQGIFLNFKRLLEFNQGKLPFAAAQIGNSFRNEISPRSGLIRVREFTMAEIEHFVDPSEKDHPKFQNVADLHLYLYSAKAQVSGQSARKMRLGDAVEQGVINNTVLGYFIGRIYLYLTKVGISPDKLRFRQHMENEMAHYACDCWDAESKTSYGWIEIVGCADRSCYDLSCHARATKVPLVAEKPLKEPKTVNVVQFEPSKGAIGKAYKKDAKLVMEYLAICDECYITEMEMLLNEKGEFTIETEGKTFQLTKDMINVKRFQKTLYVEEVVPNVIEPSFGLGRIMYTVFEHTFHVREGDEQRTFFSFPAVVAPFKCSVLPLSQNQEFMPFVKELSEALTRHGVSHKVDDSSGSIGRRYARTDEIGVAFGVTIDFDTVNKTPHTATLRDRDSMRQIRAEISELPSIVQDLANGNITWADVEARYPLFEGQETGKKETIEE

T3: CADM1 expressed on HEK293 cells of the Retrogenix protein array (UniProt Q9BY67)
T3 sequence (looked up): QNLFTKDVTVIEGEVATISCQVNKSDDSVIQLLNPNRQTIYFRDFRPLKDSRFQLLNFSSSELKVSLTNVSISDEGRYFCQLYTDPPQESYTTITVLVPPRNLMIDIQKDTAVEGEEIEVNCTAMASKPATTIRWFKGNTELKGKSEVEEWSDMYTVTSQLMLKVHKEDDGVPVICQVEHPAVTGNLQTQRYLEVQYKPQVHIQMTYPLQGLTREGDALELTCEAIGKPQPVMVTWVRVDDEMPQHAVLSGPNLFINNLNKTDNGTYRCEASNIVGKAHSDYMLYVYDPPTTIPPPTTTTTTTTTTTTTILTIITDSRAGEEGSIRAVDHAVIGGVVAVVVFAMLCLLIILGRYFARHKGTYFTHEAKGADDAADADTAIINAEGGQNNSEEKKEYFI

B1: HW-16 chimeric rabbit-human IgG1 LA/LA/PG (antibody, V domains shown)
VH: QSLEESGGRLVTPGTPLTLTCTASGFSLSSYAMSWVRQAPGKGLEWIGTMPTGGGTYYASWAKGRFTISKTSTTVDLQITSPTTEDTATYFCAKHWNIWGPGTLVTISS
VL: DIVLTQTPSSTSTAVGDTVTINCRASQSIGRNLAWFQQKPGQPPKLLIYRASNLASGVPSRFKGSGSRTQFTLTISGVQREDAATYYCLGSYSSSDTAFGGGTELEILR
B2: HW-45 chimeric rabbit-human IgG1 LA/LA/PG (antibody, V domains shown)
VH: QKQLVESGGRLVTPGTPLTLTCTVSGFSLSSYAMGWFRQAPGKGLEWIGIINSYGSTYYASWAKGRFTISKTSTTVDLKITSPTTEDTATYFCGRRIGSARFDPWGPGTLVTVSS
VL: SFVLTQPASVQVNLGQTVSLTCTADTLSRSYASWYQQKPGQAPVLLIYRDTRRPSGVPDRFSGSSSGNTATLTISGAQAGDEADYYCATSDGSGSSYRLVFGGGTQLTVTG
B3: HW-28 chimeric rabbit-human IgG1 LA/LA/PG (antibody, V domains shown)
VH: QKQLVESGGRLVTPGTPLTLTCTASGFSLSSNAMSWVRQAPGEGLQWIGTISSGGSTYYASWAKGRFTISKTSTTVTLKMTSLTTEDTATYFCARGADLHRLWGPGTLVTVSS
VL: SFVLTQPASVQVNLGQTVSLTCTGKPLSRSFASWYQQKPGQAPVLVIYRDTSRPSGVPDRFSGSSSGNTATLTISGAQAGDEADYYCATSDGSGSSYQYVFGGGTQLTVTG
B4: HW-56 chimeric rabbit-human IgG1 LA/LA/PG (antibody, V domains shown)
VH: QSVKESEGGLFKPTDTLTLTCTASGFTVSTNAVTWVRQAPGNGLEYIGTIGRSGSAYFASWAKRRSTLTRDINLNTVTLKMTSLTAADTATYFCVRGSPGYRTAISIWGPGTLVTISS
VL: AVMTQTPSSTSAAVEGTVTINCQASQSISNRLSWFQQKPGQPPKLLIYQASTLASGVPSRFKGSGSGTEFTLTISGVQREDAATYYCLGSYSSSDASFGGGTKLEIKR
B5: HW-81 chimeric rabbit-human IgG1 LA/LA/PG (antibody, V domains shown)
VH: QKQLVESGGGLVTPGGTLTLTCTVSGFSLSSNGVSWVRQAPGKGLEYIGLIRSIGSTYYATWAKGRFTISKTSTTVDLKITSPTTEDTATYFCARGGYRNGFKLWGPGTLVTVSS
VL: QPVLTQSPSVSAALGASAKLTCTLSSAHKTYYIEWYQQQHPGKAPRYLMQLQSDGSYTKGTGVPDRFSGSSSGADRYLIISSVQAEDEADYICGVIDSAVYVFGGGTQLTVTG
B6: HW-97 chimeric rabbit-human IgG1 LA/LA/PG (antibody, V domains shown)
VH: QKQLVESGGRLVTPGTPLTLTCTVTGIDLSSHGMSWVRQAPGKGLEWIGVIYPSGSTWYASWARGRFTISKTSTTVDLKMTSLTTEDTATHFCARGDVGGADNNIWGPGTLVTVSS
VL: SFVLTQPASVQVDLGQTVSLTCTAETLSRSYASWYQQKPGQAPVLLIYRDTSRPSGVPDRFSGSSSGNTATLTISGAQAGDEADYYCATSDGSGSSYQYVFGGGTQLTVTG
B7: HW-101 chimeric rabbit-human IgG1 LA/LA/PG (antibody, V domains shown)
VH: QEQLVESGGRLVTPGTPLTLTCKASGFSLGKYDMSWVRQAPGKGLEWIGTIYAGSGSTWYASWAKGRFTISKTSTTVDLKMTSLTTEDTATYFCARDFLGVNSIWGPGTLVTISS
VL: SFVLTQPASVQVNLGQTVSLTCTADTLSRSYASWYQQKPDQAPVLLIHRDTSRPSGVPDRFSGSNSGNTATLTISGAQAGDEADYYCATSDGSGSNFHFVFGGGTQLTVTG

Columns and labels:
[1] = biological target: T1, GARS-His (Sino Biological) (human); assay: summary table, column Validation (ELISA)
[2] = biological target: T1, GARS-His (Sino Biological) (human); assay: ELISA, coated recombinant GARS-His, IgG1, anti-human Fab-peroxidase
[3] = biological target: T1, GARS-His (Sino Biological) (human); assay: ELISA on coated protein, 150 ng IgG1, anti-human Fab-HRP, heatmap 0.05-0.8
[4] = biological target: T2, GARS, endogenous in H929 multiple myeloma cells (human); assay: IP from H929 cell lysate, LC-MS/MS, plotted against RNA-seq
[5] = biological target: T2, GARS, endogenous in H929 multiple myeloma cells (human); assay: IP from H929 lysate with LC-MS/MS, correlated with FACS/RNA-seq
[6] = biological target: T3, CADM1 expressed on HEK293 cells of the Retrogenix protein array; assay: summary table, column Retrogenix protein array (targets on HEK293 cells)

Row | Binder | binding [1] | binding [2] | binding [3] | binding [4] | binding [5] | binding [6]
1 | B1 | binds | binds | binds | – | – | –
2 | B2 | binds | binds | binds | binds | binds | –
3 | B3 | binds | binds | binds | – | – | –
4 | B4 | binds | binds | binds | – | – | –
5 | B5 | binds | binds | binds | – | – | –
6 | B6 | – | – | – | – | – | binds
7 | B7 | – | – | – | – | – | binds
